Results reported in article PMC6199259, “Structural and functional insights into the interaction and targeting hub TMD0 of the polypeptide transporter TAPL” (Scientific Reports, 2018).
These are yes or no findings as the source states them, for the method shown. In cells and extracts the contact can be indirect. Some binding calls cover weakened binding; strength is not graded here. Sequences can lack the tags named with a protein.

T1: TMD0-myc (N-terminal transmembrane domain TMD0 of human TAPL, wild type) (human) (UniProt Q9NP78)
T1 sequence: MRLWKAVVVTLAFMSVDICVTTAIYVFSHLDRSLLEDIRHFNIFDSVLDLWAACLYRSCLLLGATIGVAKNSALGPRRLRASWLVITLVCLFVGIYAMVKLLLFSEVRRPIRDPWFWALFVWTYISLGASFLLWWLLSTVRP

B1: coreTAPL (MG143–A766) (domain or fragment, UniProt Q9NP78 143-766)
chain: MGTQALEPGAATEAEGFPGSGRPPPEQASGATLQKLLSYTKPDVAFLVAASFFLIVAALGETFLPYYTGRAIDGIVIQKSMDQFSTAVVIVCLLAIGSSFAAGIRGGIFTLIFARLNIRLRNCLFRSLVSQETSFFDENRTGDLISRLTSDTTMVSDLVSQNINVFLRNTVKVTGVVVFMFSLSWQLSLVTFMGFPIIMMVSNIYGKYYKRLSKEVQNALARASNTAEETISAMKTVRSFANEEEEAEVYLRKLQQVYKLNRKEAAAYMYYVWGSGLTLLVVQVSILYYGGHLVISGQMTSGNLIAFIIYEFVLGDCMESVGSVYSGLMQGVGAAEKVFEFIDRQPTMVHDGSLAPDHLEGRVDFENVTFTYRTRPHTQVLQNVSFSLSPGKVTALVGPSGSGKSSCVNILENFYPLEGGRVLLDGKPISAYDHKYLHRVISLVSQEPVLFARSITDNISYGLPTVPFEMVVEAAQKANAHGFIMELQDGYSTETGEKGAQLSGGQKQRVAMARALVRNPPVLILDEATSALDAESEYLIQQAIHGNLQKHTVLIIAHRLSTVEHAHLIVVLDKGRVVQQGTHQQLLAQGGLYAKLVQRQMLGLQPAADFTAGHNEPVANGSHKA
B2: TMD0-myc (N-terminal transmembrane domain TMD0 of human TAPL, wild type) (domain or fragment, UniProt Q9NP78 1-142)
chain: T1 sequence
B3: TAPL (M1–A766), full length (protein, UniProt Q9NP78 1-766)
chain: MRLWKAVVVTLAFMSVDICVTTAIYVFSHLDRSLLEDIRHFNIFDSVLDLWAACLYRSCLLLGATIGVAKNSALGPRRLRASWLVITLVCLFVGIYAMVKLLLFSEVRRPIRDPWFWALFVWTYISLGASFLLWWLLSTVRPGTQALEPGAATEAEGFPGSGRPPPEQASGATLQKLLSYTKPDVAFLVAASFFLIVAALGETFLPYYTGRAIDGIVIQKSMDQFSTAVVIVCLLAIGSSFAAGIRGGIFTLIFARLNIRLRNCLFRSLVSQETSFFDENRTGDLISRLTSDTTMVSDLVSQNINVFLRNTVKVTGVVVFMFSLSWQLSLVTFMGFPIIMMVSNIYGKYYKRLSKEVQNALARASNTAEETISAMKTVRSFANEEEEAEVYLRKLQQVYKLNRKEAAAYMYYVWGSGLTLLVVQVSILYYGGHLVISGQMTSGNLIAFIIYEFVLGDCMESVGSVYSGLMQGVGAAEKVFEFIDRQPTMVHDGSLAPDHLEGRVDFENVTFTYRTRPHTQVLQNVSFSLSPGKVTALVGPSGSGKSSCVNILENFYPLEGGRVLLDGKPISAYDHKYLHRVISLVSQEPVLFARSITDNISYGLPTVPFEMVVEAAQKANAHGFIMELQDGYSTETGEKGAQLSGGQKQRVAMARALVRNPPVLILDEATSALDAESEYLIQQAIHGNLQKHTVLIIAHRLSTVEHAHLIVVLDKGRVVQQGTHQQLLAQGGLYAKLVQRQMLGLQPAADFTAGHNEPVANGSHKA

Legend:
[1] = biological target: T1, TMD0-myc (N-terminal transmembrane domain TMD0 of human TAPL, wild type) (human); assay: co-IP; HEK 293 T cells transiently co-transfected; solubilised with 1% digitonin; immunoprecipitation with myc-tag specific antibody on Dynabeads, isotype control as mock; 20 mM Tris, 150 mM NaCl, 5 mM MgCl2, pH 7.4, 4 °C; immunoblot
[2] = biological target: T1, TMD0-myc (N-terminal transmembrane domain TMD0 of human TAPL, wild type) (human); assay: co-IP; HEK 293 T cells transiently transfected with Flag- and myc-tagged copies of TMD0; solubilised with 1% digitonin; immunoprecipitation with Flag-tag specific antibody, isotype control as mock; immunoblot

Row | Binder | binding [1] | binding [2]
1 | B1 | binds | –
2 | B2 | – | binds
3 | B3 | no binding | –
